Test results reported in the supplement of paper PMC10849652.
The list shows a part of the results.

Protein sequences, listed by entry. Tags and fused reporters are not part of them. Lines headed by an entry give the natural chain unless they say otherwise; changes in a name come on top.
UniProt Q8NHG8: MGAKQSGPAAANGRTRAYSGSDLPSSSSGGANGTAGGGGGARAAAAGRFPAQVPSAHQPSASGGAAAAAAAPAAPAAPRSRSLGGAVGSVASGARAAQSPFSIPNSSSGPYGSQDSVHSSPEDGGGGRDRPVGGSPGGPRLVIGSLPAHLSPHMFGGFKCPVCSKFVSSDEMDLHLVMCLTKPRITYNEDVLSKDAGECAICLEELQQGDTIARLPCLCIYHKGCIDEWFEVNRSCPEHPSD
UniProt P36508: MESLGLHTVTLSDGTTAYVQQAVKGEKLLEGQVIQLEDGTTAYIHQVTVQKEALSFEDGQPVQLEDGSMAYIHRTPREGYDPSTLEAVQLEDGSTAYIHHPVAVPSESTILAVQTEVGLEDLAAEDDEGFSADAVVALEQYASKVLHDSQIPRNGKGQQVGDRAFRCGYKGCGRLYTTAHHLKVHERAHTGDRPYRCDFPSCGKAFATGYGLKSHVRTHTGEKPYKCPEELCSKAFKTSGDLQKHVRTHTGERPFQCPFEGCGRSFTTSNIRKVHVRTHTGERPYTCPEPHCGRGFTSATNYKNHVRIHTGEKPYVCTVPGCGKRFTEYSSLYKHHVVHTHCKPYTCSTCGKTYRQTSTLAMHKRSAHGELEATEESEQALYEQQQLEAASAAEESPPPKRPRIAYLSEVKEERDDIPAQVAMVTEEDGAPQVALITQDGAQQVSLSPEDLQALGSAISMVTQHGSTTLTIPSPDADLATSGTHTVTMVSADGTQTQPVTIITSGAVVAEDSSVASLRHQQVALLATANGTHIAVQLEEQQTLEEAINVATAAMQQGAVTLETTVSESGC
UniProt Q6ZMS4: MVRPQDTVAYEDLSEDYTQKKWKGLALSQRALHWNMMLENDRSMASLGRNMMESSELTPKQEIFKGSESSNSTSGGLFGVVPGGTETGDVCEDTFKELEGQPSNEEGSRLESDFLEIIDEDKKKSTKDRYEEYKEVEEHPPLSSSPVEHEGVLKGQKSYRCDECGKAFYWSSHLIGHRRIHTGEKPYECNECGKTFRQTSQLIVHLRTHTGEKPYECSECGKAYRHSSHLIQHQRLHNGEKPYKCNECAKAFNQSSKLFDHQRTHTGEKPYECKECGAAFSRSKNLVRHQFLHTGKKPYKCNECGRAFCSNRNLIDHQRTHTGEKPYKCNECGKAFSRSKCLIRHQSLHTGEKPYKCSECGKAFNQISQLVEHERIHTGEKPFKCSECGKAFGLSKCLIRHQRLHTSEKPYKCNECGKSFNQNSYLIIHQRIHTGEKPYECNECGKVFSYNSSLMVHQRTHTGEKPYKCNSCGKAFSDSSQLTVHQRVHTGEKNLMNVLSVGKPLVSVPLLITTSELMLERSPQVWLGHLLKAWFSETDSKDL
UniProt K7EIQ3: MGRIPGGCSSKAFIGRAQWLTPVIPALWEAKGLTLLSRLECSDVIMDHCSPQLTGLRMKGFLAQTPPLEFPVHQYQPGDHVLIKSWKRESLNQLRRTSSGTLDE
UniProt Q8TF50: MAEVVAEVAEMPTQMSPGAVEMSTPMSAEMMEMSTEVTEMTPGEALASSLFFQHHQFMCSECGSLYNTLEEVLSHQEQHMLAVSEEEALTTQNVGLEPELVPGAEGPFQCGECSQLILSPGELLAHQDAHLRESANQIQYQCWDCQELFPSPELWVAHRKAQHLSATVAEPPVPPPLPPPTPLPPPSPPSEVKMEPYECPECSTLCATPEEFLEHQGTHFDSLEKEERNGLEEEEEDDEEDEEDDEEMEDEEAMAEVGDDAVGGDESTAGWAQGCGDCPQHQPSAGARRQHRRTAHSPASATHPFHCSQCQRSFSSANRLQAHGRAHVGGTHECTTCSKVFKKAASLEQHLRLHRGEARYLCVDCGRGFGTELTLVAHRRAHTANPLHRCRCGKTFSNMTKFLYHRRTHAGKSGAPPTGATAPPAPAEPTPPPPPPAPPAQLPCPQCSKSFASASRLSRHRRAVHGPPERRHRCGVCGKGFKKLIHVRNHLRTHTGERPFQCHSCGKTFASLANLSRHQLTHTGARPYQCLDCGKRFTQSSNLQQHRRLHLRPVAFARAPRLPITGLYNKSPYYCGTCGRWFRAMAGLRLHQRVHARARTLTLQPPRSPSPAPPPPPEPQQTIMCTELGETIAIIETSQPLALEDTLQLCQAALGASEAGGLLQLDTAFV
UniProt Q96BR6: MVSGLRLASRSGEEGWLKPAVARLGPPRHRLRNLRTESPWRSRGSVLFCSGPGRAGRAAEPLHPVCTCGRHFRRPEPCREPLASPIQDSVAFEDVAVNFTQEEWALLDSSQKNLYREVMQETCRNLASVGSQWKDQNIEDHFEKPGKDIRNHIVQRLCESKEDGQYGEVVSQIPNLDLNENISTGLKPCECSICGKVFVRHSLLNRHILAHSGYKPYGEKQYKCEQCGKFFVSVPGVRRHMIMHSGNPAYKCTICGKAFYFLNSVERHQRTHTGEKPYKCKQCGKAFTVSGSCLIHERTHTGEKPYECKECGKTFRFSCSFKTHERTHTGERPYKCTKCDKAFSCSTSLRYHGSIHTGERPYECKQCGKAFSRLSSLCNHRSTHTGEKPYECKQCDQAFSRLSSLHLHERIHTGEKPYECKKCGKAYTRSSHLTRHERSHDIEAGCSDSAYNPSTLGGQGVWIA
UniProt Q14592: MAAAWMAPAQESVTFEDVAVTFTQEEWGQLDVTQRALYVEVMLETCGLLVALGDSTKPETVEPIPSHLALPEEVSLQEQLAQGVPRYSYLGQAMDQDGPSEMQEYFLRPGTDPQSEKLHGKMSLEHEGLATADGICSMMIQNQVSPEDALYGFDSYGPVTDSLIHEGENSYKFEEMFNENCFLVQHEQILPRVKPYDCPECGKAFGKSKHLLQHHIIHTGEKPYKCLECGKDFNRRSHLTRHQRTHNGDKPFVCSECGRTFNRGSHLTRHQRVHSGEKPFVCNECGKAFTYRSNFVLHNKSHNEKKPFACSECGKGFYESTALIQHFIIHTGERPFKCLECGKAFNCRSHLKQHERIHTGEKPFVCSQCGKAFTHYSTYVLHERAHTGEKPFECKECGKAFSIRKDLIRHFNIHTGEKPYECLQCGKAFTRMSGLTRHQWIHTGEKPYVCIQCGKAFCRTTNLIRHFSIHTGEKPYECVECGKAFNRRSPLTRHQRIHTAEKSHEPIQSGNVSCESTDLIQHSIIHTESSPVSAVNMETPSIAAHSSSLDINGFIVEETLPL
UniProt Q8N4W9: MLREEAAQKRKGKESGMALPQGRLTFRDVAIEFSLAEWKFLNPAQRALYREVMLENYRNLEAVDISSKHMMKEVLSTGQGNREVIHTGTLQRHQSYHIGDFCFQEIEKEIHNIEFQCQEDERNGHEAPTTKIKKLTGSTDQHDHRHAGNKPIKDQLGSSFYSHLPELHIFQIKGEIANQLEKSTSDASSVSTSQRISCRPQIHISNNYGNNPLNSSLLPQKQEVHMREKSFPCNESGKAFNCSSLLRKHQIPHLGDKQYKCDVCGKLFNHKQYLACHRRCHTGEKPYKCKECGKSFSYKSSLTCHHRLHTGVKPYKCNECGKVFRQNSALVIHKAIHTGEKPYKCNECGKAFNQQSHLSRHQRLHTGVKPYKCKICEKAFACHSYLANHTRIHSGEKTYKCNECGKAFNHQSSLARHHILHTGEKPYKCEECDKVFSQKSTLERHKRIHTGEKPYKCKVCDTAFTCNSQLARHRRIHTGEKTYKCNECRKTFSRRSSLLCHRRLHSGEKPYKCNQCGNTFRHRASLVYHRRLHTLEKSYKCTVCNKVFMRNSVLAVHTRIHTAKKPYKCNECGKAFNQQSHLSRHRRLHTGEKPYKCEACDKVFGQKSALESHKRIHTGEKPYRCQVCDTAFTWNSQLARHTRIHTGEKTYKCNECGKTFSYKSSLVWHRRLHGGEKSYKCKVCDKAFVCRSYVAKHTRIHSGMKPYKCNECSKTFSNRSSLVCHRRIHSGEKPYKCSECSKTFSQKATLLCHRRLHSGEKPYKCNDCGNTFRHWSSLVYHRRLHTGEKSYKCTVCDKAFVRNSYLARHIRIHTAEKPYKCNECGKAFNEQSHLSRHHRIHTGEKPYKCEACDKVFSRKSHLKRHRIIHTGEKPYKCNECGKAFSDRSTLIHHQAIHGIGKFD
UniProt Q9BU19: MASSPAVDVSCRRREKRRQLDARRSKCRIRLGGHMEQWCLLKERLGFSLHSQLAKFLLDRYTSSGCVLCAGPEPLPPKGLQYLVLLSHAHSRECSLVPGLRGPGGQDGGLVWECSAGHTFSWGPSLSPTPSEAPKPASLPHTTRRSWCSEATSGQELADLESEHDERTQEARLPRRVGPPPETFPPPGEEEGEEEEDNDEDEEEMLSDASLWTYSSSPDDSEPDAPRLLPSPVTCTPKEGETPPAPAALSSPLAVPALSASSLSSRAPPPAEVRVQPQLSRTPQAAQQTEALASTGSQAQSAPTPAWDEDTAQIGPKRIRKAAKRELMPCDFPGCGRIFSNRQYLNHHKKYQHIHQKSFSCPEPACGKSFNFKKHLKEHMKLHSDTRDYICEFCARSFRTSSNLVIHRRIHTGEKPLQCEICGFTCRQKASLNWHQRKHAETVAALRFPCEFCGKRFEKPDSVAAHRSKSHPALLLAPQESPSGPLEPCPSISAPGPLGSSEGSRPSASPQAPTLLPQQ
UniProt Q8IYI8: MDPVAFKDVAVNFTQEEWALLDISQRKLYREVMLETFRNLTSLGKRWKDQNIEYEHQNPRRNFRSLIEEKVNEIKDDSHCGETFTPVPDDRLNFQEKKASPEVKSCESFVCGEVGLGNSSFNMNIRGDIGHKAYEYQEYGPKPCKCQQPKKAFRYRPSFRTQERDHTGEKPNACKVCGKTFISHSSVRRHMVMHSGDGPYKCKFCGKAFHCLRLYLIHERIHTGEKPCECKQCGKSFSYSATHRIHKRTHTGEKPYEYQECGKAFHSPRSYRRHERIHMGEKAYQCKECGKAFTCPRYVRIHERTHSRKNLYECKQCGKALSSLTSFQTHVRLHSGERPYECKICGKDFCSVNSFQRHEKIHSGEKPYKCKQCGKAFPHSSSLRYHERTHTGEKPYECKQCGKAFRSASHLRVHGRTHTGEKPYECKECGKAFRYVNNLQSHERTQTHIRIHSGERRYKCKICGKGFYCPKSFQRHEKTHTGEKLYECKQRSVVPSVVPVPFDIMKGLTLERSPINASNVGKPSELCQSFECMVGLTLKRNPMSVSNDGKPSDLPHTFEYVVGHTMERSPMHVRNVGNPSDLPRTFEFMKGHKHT
UniProt Q96MX3: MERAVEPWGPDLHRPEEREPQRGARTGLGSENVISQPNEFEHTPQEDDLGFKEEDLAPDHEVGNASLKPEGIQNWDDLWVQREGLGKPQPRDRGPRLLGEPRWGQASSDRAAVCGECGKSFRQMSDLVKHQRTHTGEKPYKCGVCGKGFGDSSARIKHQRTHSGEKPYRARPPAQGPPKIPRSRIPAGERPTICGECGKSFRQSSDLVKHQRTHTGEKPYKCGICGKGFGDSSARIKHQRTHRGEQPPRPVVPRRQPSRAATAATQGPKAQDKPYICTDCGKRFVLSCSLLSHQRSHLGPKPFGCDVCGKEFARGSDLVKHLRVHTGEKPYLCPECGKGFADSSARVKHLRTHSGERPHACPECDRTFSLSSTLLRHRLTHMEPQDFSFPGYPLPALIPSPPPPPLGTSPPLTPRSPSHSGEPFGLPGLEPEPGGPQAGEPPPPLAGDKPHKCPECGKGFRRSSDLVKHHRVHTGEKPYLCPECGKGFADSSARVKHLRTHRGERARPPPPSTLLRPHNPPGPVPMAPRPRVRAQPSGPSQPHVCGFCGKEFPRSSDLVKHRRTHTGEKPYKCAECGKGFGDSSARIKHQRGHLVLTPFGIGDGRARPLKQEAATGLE
UniProt Q8N720: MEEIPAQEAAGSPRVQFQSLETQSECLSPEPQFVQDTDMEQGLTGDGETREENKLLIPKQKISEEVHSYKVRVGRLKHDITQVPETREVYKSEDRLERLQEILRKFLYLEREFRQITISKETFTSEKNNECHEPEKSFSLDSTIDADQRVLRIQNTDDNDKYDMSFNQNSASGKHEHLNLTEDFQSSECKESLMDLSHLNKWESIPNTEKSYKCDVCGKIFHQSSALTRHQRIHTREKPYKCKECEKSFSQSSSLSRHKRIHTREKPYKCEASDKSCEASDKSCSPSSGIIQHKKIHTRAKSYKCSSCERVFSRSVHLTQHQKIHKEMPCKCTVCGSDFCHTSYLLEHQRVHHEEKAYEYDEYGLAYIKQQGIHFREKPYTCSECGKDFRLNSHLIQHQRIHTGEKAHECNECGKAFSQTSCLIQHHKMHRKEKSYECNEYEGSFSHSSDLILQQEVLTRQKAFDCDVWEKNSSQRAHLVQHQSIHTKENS
UniProt Q96IQ9: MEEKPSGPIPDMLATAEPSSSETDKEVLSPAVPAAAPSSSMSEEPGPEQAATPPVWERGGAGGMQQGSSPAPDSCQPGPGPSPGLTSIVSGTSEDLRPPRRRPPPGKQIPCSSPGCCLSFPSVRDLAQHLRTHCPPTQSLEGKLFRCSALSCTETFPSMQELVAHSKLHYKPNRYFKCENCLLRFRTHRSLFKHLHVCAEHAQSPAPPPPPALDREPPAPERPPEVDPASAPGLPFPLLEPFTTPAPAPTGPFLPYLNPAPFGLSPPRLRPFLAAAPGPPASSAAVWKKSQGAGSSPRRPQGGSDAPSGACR

Experiments:
Assay in all cases: log2 fold change, soluble protein after heating vs DMSO (PISA); higher = thermal stabilisation; K562 lysate, 10 uM; active = over 0.2 and 3.5 SD of the protein, either way, in both replicates (recomputed)
[1] = compound: C/C(=N\NC(=O)C1=CC(=CC=C1)S(=O)(=O)N2CCOCC2)/C3=C(C=CC(=C3)Cl)O
Procedure, shortened: (§1)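 Soluble protein was defined as the supernatant remaining after 21,000xg for 90 min, following pooling of heated aliquots and adjustment to 0.5% NP-40 at 4°C. Before that, crude K562 extract at 1 mg/mL protein in PBS pH 7.4 with 1 mM MgCl2 was treated with 10 μM compound for 30 min and heated for 3 min across 48°C-58°C. Quantification used TMTpro 16plex LC-MS/MS with channel sums equalised, and values are log-two fold changes in thermal stability relative to solvent controls from duplicates.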

[2] = compound: C1=CC2=C(C=CC(=C2)/C=C\3/C(=O)NC(=NCC4=CC=CS4)S3)N=C1
Procedure, shortened: as §1

[3] = compound: C1=CC2=NC=CN=C2C=C1/C=C/3\C(=O)NC(=O)S3
Procedure, shortened: as §1

[4] = compound: C1=CC=C(C=C1)C2=NC(=C(N2)C3=CC=NC=C3)C4=CC(=C(C=C4)Cl)O
Procedure, shortened: as §1

[5] = compound: C1=CC=C2C(=C1)C3=NNC4=CC=CC(=C43)C2=O
Procedure, shortened: as §1

[6] = compound: C1CCN(C1)C(=O)NC2=CC=CC(=C2)NC3=NC=C(C(=N3)NCCC4=CN=CN4)Br
Procedure, shortened: as §1

[7] = compound: C1CN(CCC1(CC2=CC=C(C=C2)Cl)N)C3=NC=NC4=C3C=CN4
Procedure, shortened: as §1

IRAK-1-4 Inhibitor I = compound: C1COCCN1CCN2C3=CC=CC=C3N=C2NC(=O)C4=CC(=CC=C4)[N+](=O)[O-] [IRAK-1-4 Inhibitor I]
Procedure, shortened: as §1

ibrutinib = compound: C=CC(=O)N1CCC[C@@H](n2nc(-c3ccc(Oc4ccccc4)cc3)c3c(N)ncnc32)C1 [ibrutinib]
Procedure, shortened: as §1

[8] = compound: CC(=O)c1cnc2ccc(-c3cc(Cl)c(O)c(Cl)c3)nc2c1N[C@H]1CC[C@H](CN(C)C)CC1
Procedure, shortened: as §1

ralimetinib = compound: CC(C)(C)Cn1c(N)nc2ccc(-c3[nH]c(C(C)(C)C)nc3-c3ccc(F)cc3)nc21 [ralimetinib]
Procedure, shortened: as §1

[9] = compound: CC(C)(O)CC(=O)NCCn1ccc2ncnc(Nc3ccc(Oc4cccc(C(F)(F)F)c4)c(Cl)c3)c21
Procedure, shortened: as §1

[10] = compound: CC1=C(C(CC(=O)N1)C2=CC=C(C=C2)C(F)(F)F)C(=O)NC3=C(C=C4C(=C3)C=NN4)F
Procedure, shortened: as §1

[11] = compound: CC1=C(C=C(C=C1)NC(=O)C2=CC(=CC=C2)C(C)(C)C#N)NC3=CC4=C(C=C3)N=CN(C4=O)C
Procedure, shortened: as §1

[12] = compound: CC1=C(C=C(C=C1)NC(=O)C2=CC(=CC=C2)N(C)C)NC(=O)C3=CC=C(C=C3)O
Procedure, shortened: as §1

[13] = compound: CC1=CC=C(C=C1)SC2=C3C=C(SC3=CN=C2)C(=O)N
Procedure, shortened: as §1

erlotinib = compound: C#Cc1cccc(Nc2ncnc3cc(OCCOC)c(OCCOC)cc23)c1 [erlotinib]
Procedure, shortened: as §1

[14] = compound: C1=CC(=CC=C1C2=NC3=C(N2)C=C(C=C3)C(=O)N)OC4=CC=C(C=C4)Cl
Procedure, shortened: as §1

[15] = compound: CC(C)C1=C2N=C(C=C(N2N=C1)NCC3=CC=CC=C3)NCCCCCCN
Procedure, shortened: as §1

[16] = compound: CC1=C(C2=C(C=C1)C(=O)C3=CC=CC=C3N2CCCN)C
Procedure, shortened: as §1

Measured: log2 fold change

ZNRF2 (UniProt Q8NHG8)
inactive: [1] -0.015 | [2] -0.02 | [3] 0.142 | [4] -0.046 | [5] 0.082 | [6] -0.018 | [7] -0.034 | IRAK-1-4 Inhibitor I -0.013 | ibrutinib 0.084 | [8] 0.053 | ralimetinib -0.028 | [9] 0.093 | [10] 0.047 | [11] 0.202 | [12] 0.04 | [13] -0.062

ZMYND19 (UniProt Q96E35)
inactive: erlotinib -0.029 | [14] -0.03 | [15] -0.102 | [11] -0.109

ZSWIM7 (UniProt Q19AV6)
inactive: erlotinib 0.018 | [1] -0.024 | [14] 0.026 | [2] 0.04 | [4] 0.217 | [5] -0.124 | IRAK-1-4 Inhibitor I -0.018 | ralimetinib 0.135 | [9] -0.052 | [15] 0.036 | [16] -0.036 | [12] -0.033

ZNF691 (UniProt Q5VV52)
inactive: [1] -0.122 | [2] 0.022 | [3] -0.099 | [4] -0.017 | [5] 0.072 | [6] -0.002 | [7] -0.059 | IRAK-1-4 Inhibitor I 0.104 | ibrutinib 0.006 | [8] -0.077 | ralimetinib -0.073 | [9] -0.206 | [16] 0.003 | [11] -0.03 | [12] 0.11 | [13] 0.029

ZNF76 (UniProt P36508)
inactive: erlotinib -0.009 | [1] -0.058 | [14] -0.051 | [2] -0.135 | [5] 0.074 | [15] -0.072 | [11] 0.045

ZNF852 (UniProt Q6ZMS4)
inactive: erlotinib 0.035 | [1] -0.318 | [14] 0.07 | [2] -0.101 | [5] 0.14 | [8] 0.124 | [15] -0.057 | [11] 0.035 | [13] -0.126

ZYG11A (UniProt Q6WRX3)
inactive: erlotinib -0.125 | [14] -0.059 | [3] -0.061 | [4] -0.04 | IRAK-1-4 Inhibitor I -0.004 | ibrutinib 0.228 | [8] 0.063 | ralimetinib 0.082 | [9] -0.087 | [15] -0.159 | [10] 0.046 | [12] 0.052 | [13] -0.315

ZNHIT1 (UniProt O43257)
inactive: erlotinib -0.021 | [14] -0.025 | [3] -0.124 | [4] -0.078 | [6] 0.139 | [7] 0.159 | IRAK-1-4 Inhibitor I 0.024 | ibrutinib -0.066 | ralimetinib 0.013 | [9] -0.086 | [15] 0.018 | [10] 0.062 | [12] 0.004

ZNF668 isoform 2 (UniProt Q96K58)
inactive: erlotinib -0.026 | [14] -0.025 | [8] 0.034 | [15] -0.111 | [10] 0.051 | [11] -0.081 | [13] -0.048

ZNF561-AS1 (UniProt K7EIQ3)
inactive: erlotinib -0.411 | [14] -0.124 | [3] -0.112 | [4] -0.252 | IRAK-1-4 Inhibitor I -0.052 | ibrutinib -0.051 | ralimetinib 0.09 | [9] 0.239 | [15] -0.076 | [12] -0.234

ZNF639 (UniProt Q9UID6)
inactive: erlotinib -0.088 | [1] 0.052 | [14] 0.106 | [2] 0.001 | [4] -0.015 | [5] -0.104 | IRAK-1-4 Inhibitor I 0.012 | ralimetinib 0.078 | [9] -0.09 | [15] -0.058 | [10] 0.012 | [16] -0.022 | [11] 0.022 | [12] -0.093

ZNF280A (UniProt P59817)
inactive: erlotinib 0.105 | [14] -0.001 | [4] -0.015 | IRAK-1-4 Inhibitor I 0.009 | ralimetinib 0.021 | [9] 0.143 | [15] 0.17 | [10] 0.023 | [16] 0.038 | [11] 0.234 | [12] -0.306

ZNF526 (UniProt Q8TF50)
inactive: erlotinib 0.009 | [14] 0.042 | [4] -0.018 | IRAK-1-4 Inhibitor I -0.021 | ralimetinib 0.035 | [9] 0.077 | [15] -0.21 | [10] 0.018 | [16] -0.015 | [12] 0.282

ZNF669 (UniProt Q96BR6)
inactive: erlotinib -0.144 | [14] -0.033 | [3] -0.003 | [4] 0.148 | IRAK-1-4 Inhibitor I 0.015 | ibrutinib 0.074 | [8] 0.107 | ralimetinib 0.004 | [9] -0.125 | [15] -0.09 | [10] 0.022 | [16] -0.025 | [11] -0.038 | [12] 0.067 | [13] 0.063

ZNF592 (UniProt Q92610)
inactive: erlotinib 0.119 | [14] 0.065 | [3] 0.009 | [4] 0.024 | [6] -0.07 | [7] 0.094 | IRAK-1-4 Inhibitor I 0.032 | ibrutinib 0.097 | [8] 0.143 | ralimetinib 0.006 | [9] -0.048 | [15] -0.009 | [16] -0.047 | [11] 0.098 | [12] -0.024 | [13] 0.068

ZMAT5 (UniProt Q9UDW3)
inactive: erlotinib -0.099 | [14] -0.272 | [15] -0.032

ZNF460 (UniProt Q14592)
inactive: [1] 0.143 | [2] 0.095 | [3] 0.075 | [5] 0.063 | [6] -0.006 | [7] 0.326 | ibrutinib 0.005

ZSCAN25 (UniProt Q6NSZ9)
inactive: erlotinib 0.012 | [14] -0.004 | [15] -0.068 | [16] 0.056

ZNF385A (UniProt Q96PM9)
inactive: erlotinib -0.04 | [14] -0.018 | [3] 0.033 | [4] 0.039 | IRAK-1-4 Inhibitor I -0.059 | ibrutinib -0.002 | ralimetinib 0.05 | [9] -0.178 | [15] 0.068 | [10] 0.192 | [11] -0.124 | [12] 0.02

ZNF574 isoform 2 (UniProt Q6ZN55)
inactive: erlotinib -0.122 | [14] -0.016 | [3] 0.03 | [4] -0.049 | [6] -0.053 | [7] -0.01 | IRAK-1-4 Inhibitor I -0.058 | ibrutinib 0.095 | [8] -0.061 | ralimetinib -0.165 | [9] -0.103 | [15] -0.004 | [10] 0.071 | [11] -0.106 | [12] -0.07 | [13] 0.088

ZNF358 (UniProt Q9NW07)
inactive: erlotinib -0.078 | [14] -0.075 | [8] 0.085 | [15] -0.007 | [13] -0.057

Copied from the results shown (eight entries):
ZNF639 (UniProt Q9UID6)
inactive: erlotinib -0.088 | [1] 0.052 | [14] 0.106 | [2] 0.001 | [4] -0.015 | [5] -0.104 | IRAK-1-4 Inhibitor I 0.012 | ralimetinib 0.078 | [9] -0.09 | [15] -0.058 | [10] 0.012 | [16] -0.022 | [11] 0.022 | [12] -0.093

ZNF280A (UniProt P59817)
inactive: erlotinib 0.105 | [14] -0.001 | [4] -0.015 | IRAK-1-4 Inhibitor I 0.009 | ralimetinib 0.021 | [9] 0.143 | [15] 0.17 | [10] 0.023 | [16] 0.038 | [11] 0.234 | [12] -0.306

ZNF526 (UniProt Q8TF50)
inactive: erlotinib 0.009 | [14] 0.042 | [4] -0.018 | IRAK-1-4 Inhibitor I -0.021 | ralimetinib 0.035 | [9] 0.077 | [15] -0.21 | [10] 0.018 | [16] -0.015 | [12] 0.282

ZNF669 (UniProt Q96BR6)
inactive: erlotinib -0.144 | [14] -0.033 | [3] -0.003 | [4] 0.148 | IRAK-1-4 Inhibitor I 0.015 | ibrutinib 0.074 | [8] 0.107 | ralimetinib 0.004 | [9] -0.125 | [15] -0.09 | [10] 0.022 | [16] -0.025 | [11] -0.038 | [12] 0.067 | [13] 0.063

ZNF592 (UniProt Q92610)
inactive: erlotinib 0.119 | [14] 0.065 | [3] 0.009 | [4] 0.024 | [6] -0.07 | [7] 0.094 | IRAK-1-4 Inhibitor I 0.032 | ibrutinib 0.097 | [8] 0.143 | ralimetinib 0.006 | [9] -0.048 | [15] -0.009 | [16] -0.047 | [11] 0.098 | [12] -0.024 | [13] 0.068

ZMAT5 (UniProt Q9UDW3)
inactive: erlotinib -0.099 | [14] -0.272 | [15] -0.032

ZNF460 (UniProt Q14592)
inactive: [1] 0.143 | [2] 0.095 | [3] 0.075 | [5] 0.063 | [6] -0.006 | [7] 0.326 | ibrutinib 0.005

ZSCAN25 (UniProt Q6NSZ9)
inactive: erlotinib 0.012 | [14] -0.004 | [15] -0.068 | [16] 0.056

The results go on:

ZNF16 (UniProt P17020)
inactive: [11] 0.072

ZNF808 (UniProt Q8N4W9)
inactive: [4] 0.166 | IRAK-1-4 Inhibitor I 0.235 | ralimetinib -0.163 | [9] -0.356 | [16] -0.097 | [11] 0.409 | [12] -0.149

ZNF692 isoform 5 (UniProt Q9BU19)
inactive: [1] 0.136 | [2] 0.071 | [5] -0.079 | [16] -0.207

ZNF77 (UniProt Q15935)
inactive: [1] -0.123 | [2] 0.066 | [5] -0.076 | [6] 0.354 | [7] -0.499

ZNF440 (UniProt Q8IYI8)
inactive: [10] 0.211

ZNF48 (UniProt Q96MX3)
inactive: [6] 0.114 | [7] -0.035 | [8] 0.013 | [13] 0.132

ZNF485 (UniProt Q8NCK3)
inactive: [4] 0.115 | IRAK-1-4 Inhibitor I 0.054 | ralimetinib -0.145 | [9] -0.044 | [12] 0.158

ZNF410 isoform 5 (UniProt Q86VK4)
inactive: [6] 0.214 | [7] -0.395 | [11] -0.216

ZNF655 isoform 3 (UniProt Q8N720)
inactive: [6] 0.011 | [7] -0.078 | [11] 0.07

ZNF414 isoform 2 (UniProt Q96IQ9)
inactive: [4] -0.045 | [6] 0.234 | [7] -0.054 | IRAK-1-4 Inhibitor I -0.033 | ralimetinib 0.103 | [9] -0.031 | [11] 0.02 | [12] -0.269

ZSCAN21 (UniProt Q9Y5A6)
inactive: [6] -0.022 | [7] 0.037
